Reference: PubChem BioAssay AID652243 (Drosophila RNAi Screening Center, 2013)
In all, the deposit lists about 24,000 reagents; shown is an unselected part of those that have a named target and a result. In the full data, 246 (1%) got an active call. 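Plates not normalised; calls are printed but the firefly/Renilla ratio behind them is not deposited; fold cut for lowering reported inconsistently.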 Raw values vary from plate to plate and are shown uncorrected. Names joined by + are all predicted targets of the reagent. Reagent sequences are not shown. Not stated in the record: the amount of reagent.

Assay: 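Fly regulators of androgen-dependent reporter output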 (primary screen)
Cell system: Drosophila S2R+ cells
Reagents: long dsRNA against Drosophila genes
Time to read-out: 72 h (48 h, then 24 h hormone)
Treatment: synthetic androgen R1881 at 10 nM for 24 h
Measured: 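Per-well raw luminescence of the androgen-driven firefly reporter and of the Renilla control, two replicates each, without normalisation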
Reading the numbers: firefly reporter light: higher = more light from androgen-responsive reporter; Renilla control light: higher = more constitutive control signal (cell number, transfection)
Rule for the call: 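Across duplicate plates, a knock-down whose log firefly/Renilla ratio shifted a set fold down or up from the GFP/LacZ control mean was a hit; the downward cut appears as both 1.5 and 3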
Calls: active = hit: reporter lowered or raised; inactive = no hit

no.	target gene	DRSC id	firefly reporter light, replicate 1	firefly reporter light, replicate 2	Renilla control light, replicate 1	Renilla control light, replicate 2	Call
1	CG13004 (GeneID 32673)	DRSC19523	3.62e5	3.29e5	2.75e6	2.55e6	inactive
2	CG32847 (GeneID 318245)	DRSC22901	7.03e5	7.63e5	2.42e6	2.64e6	inactive
3	Vajk4 (GeneID 36950)	DRSC06589	4.04e5	5.34e5	7.45e5	1.08e6	inactive
4	Vajk4 (GeneID 36950)	DRSC07003	1.20e5	1.30e5	3.02e6	3.02e6	inactive
5	Vajk4 (GeneID 36950)	DRSC25326	4.66e5	6.02e5	7.73e5	7.79e5	inactive
6	Rx (GeneID 37367)	DRSC03837	2.64e5	2.96e5	7.39e5	6.49e5	inactive
7	Rx (GeneID 37367)	DRSC04652	3.72e5	4.25e5	2.81e6	1.86e6	inactive
8	Rx (GeneID 37367)	DRSC25248	2.43e5	2.44e5	4.64e5	2.80e5	inactive
9	Uch (GeneID 33397)	DRSC00797	1.05e6	7.86e5	5.35e6	2.43e6	inactive
10	Eglp2 (GeneID 37737)	DRSC04294	1.14e6	5.31e5	1.48e6	1.00e6	inactive
11	Polr2K (GeneID 5740790)	DRSC38870	9.56e5	1.13e6	1.46e6	1.52e6	inactive
12	robo2 (GeneID 44522)	DRSC00377	1.37e5	1.07e5	1.02e6	1.10e6	inactive
13	robo2 (GeneID 44522)	DRSC00378	1.66e5	1.25e5	9.31e5	7.93e5	inactive
14	robo2 (GeneID 44522)	DRSC00686	86751	1.24e5	6.25e5	7.44e5	inactive
15	robo2 (GeneID 44522)	DRSC00691	2.85e5	3.17e5	8.83e5	1.02e6	inactive
16	sgl (GeneID 38760)	DRSC21431	6.50e5	6.71e5	3.00e6	2.73e6	inactive
17	sgl (GeneID 38760)	DRSC29308	7.74e5	7.79e5	1.17e6	1.12e6	inactive
18	Nepl4 (GeneID 33889)	DRSC03239	7.54e5	7.84e5	1.32e6	1.95e6	inactive
19	Ugt304A1 (GeneID 53501)	DRSC15127	1.34e5	1.32e5	1.50e6	1.81e6	inactive
20	Ugt304A1 (GeneID 53501)	DRSC26693	2.50e5	2.70e5	2.86e5	3.88e5	inactive
21	Spn85F (GeneID 41221)	DRSC14545	5.01e5	5.16e5	3.02e6	3.95e6	inactive
22	SNCF (GeneID 39496)	DRSC10115	1.34e5	1.54e5	1.47e6	1.24e6	inactive
23	tomb + Cap-D3	DRSC27851	9.26e5	7.94e5	4.11e6	1.67e6	inactive
24	Ctf4 (GeneID 36551)	DRSC06380	9.59e5	8.04e5	1.85e6	1.43e6	inactive
25	snoRNA:U3:9B (GeneID 3772408)	DRSC37902	8.21e5	8.56e5	1.52e6	1.86e6	inactive
26	Gr32a (GeneID 34545)	DRSC02400	2.05e5	3.05e5	2.13e6	2.32e6	inactive
27	oxt (GeneID 38288)	DRSC08522	7.37e5	1.02e6	1.45e6	1.61e6	inactive
28	esn (GeneID 53557)	DRSC05039	1.91e5	2.14e5	3.18e5	2.49e5	inactive
29	esn (GeneID 53557)	DRSC06181	1.70e5	1.81e5	1.27e6	1.28e6	inactive
30	esn (GeneID 53557)	DRSC07612	2.15e5	2.21e5	1.27e6	1.46e6	inactive
31	esn (GeneID 53557)	DRSC27647	2.64e5	2.34e5	6.06e5	7.55e5	inactive
32	bib (GeneID 34330)	DRSC03496	7.25e5	7.51e5	2.42e6	1.94e6	inactive
33	MFS3 (GeneID 33292)	DRSC00664	1.23e5	1.18e5	9.09e5	1.27e6	inactive
34	MFS3 (GeneID 33292)	DRSC28601	4.49e5	3.45e5	1.10e6	1.21e6	inactive
35	CG6012 (GeneID 35022)	DRSC02921	1.72e5	2.86e5	2.14e6	2.65e6	inactive
36	CG10591 (GeneID 38634)	DRSC09748	5.94e5	6.00e5	1.78e6	2.02e6	inactive
37	CG10591 (GeneID 38634)	DRSC27468	4.15e5	4.26e5	6.54e5	7.41e5	inactive
38	CG18609 (GeneID 37158)	DRSC06775	1.04e5	1.17e5	1.44e6	1.67e6	inactive
39	CG18609 (GeneID 37158)	DRSC27601	2.22e5	2.29e5	5.91e5	7.67e5	inactive
40	CG9915 (GeneID 32593)	DRSC20217	2.98e5	2.50e5	3.35e6	2.98e6	inactive
41	CG9915 (GeneID 32593)	DRSC21565	5.97e5	6.25e5	2.69e6	2.49e6	inactive
42	CG9915 (GeneID 32593)	DRSC27327	2.45e5	2.11e5	6.69e5	6.78e5	inactive
